Assay results taken from US20060058383A1 (priority 2004, published 2006).
For part of these data: At least one structure is not confirmed: it was looked up by name or label, or the drawing left a doubt. Some results were stated once for a whole list of compounds, not compound by compound.

Assays:
[1] = tested on: HL-60/AR cells; experiment: MTT cytotoxicity, drug-resistant clone versus parental cells; assay type: cell-based, human; conditions: 72 h
Experimental: HL-60 cell line and its drug-resistant clone HL-60/AR were incubated with the indicated concentrations of doxorubicin, vincristine, and 3-BrPA for 72 h. Cytotoxicity was measured by MTT assay. […] Based on the teachings provided herein, studies may be performed to determine the sensitivity of HL-60/AR cells to Glycolycin.
Ara-C, a drug commonly used in the frontline treatment of leukemia, was used in parallel experiments. Cytotoxicity was measured by MTT assay.

[2] = tested on: Raji cells; experiment: Cellular ATP pool by HPLC; assay type: cell-based, human; conditions: 100 ng/ml alone for 24 h
Experimental: HPLC analysis was then used to determine cellular ATP pool in an attempt to understand the biochemical basis of the synergistic activity of rapamycin and 3-BrOP. Raji cells were treated with various concentrations of 3-BrOP in the presence and absence of rapamycin (100 ng/ml) for 6 h, and cellular ATP and other nucleotide pools were measured by HPLC analysis as described in Examples herein.
Because this ATP depletion occurred before apoptosis became detectable, it seems that the enhancement of ATP depletion might be a biochemical mechanism by which rapamycin promote the cytotoxic effect of 3-BrOP. […]
After cells were treated with rapamycin and 3-BrOP under the desired conditions, cellular glucose uptake was measured by incubating the cells in glucose-free RPMI 1640 media with 0.2 μCi/ml of [^3H]-2-deoxyglucose (specific activity, 40 Ci/mmol) for 60 min. After the samples were washed three times with cold PBS, the radioactivity in the cell pellets was quantified by liquid scintillation counting. […] Intracellular nucleotides were extracted from the cells with 0.4 N of perchloric acid (PCA) for 10 min in ice-bath, neutralization with concentrated KOH to pH 7.0, and analyzed by HPLC analysis as described previously (Xu et al., 2005; Seymour et al., 1996). […] The relative cellular ATP levels were expressed as percent of the control cells.

Row | SMILES | resistance of HL-60/AR compared to parental HL-60 cells [1] | cellular ATP pool [2]
1 | COc1cccc2c1C(=O)c1c(O)c3c(c(O)c1C2=O)C[C@@](O)(C(=O)CO)C[C@@H]3O[C@H]1C[C@H](N)[C@H](O)[C@H](C)O1 [doxorubicin] | more than 100 fold | –
2 | CO[C@H]1C[C@@H]2CC[C@@H](C)[C@@](O)(O2)C(=O)C(=O)N2CCCC[C@H]2C(=O)O[C@H]([C@H](C)C[C@@H]2CC[C@@H](O)[C@H](OC)C2)CC(=O)[C@H](C)/C=C(\C)[C@@H](O)[C@@H](OC)C(=O)[C@H](C)C[C@H](C)/C=C/C=C/C=C/1C [rapamycin, reference compound] | – | did not cause any detectable change
3 | CC[C@]1(O)C[C@H]2CN(CCc3c([nH]c4ccccc34)[C@@](C(=O)OC)(c3cc4c(cc3OC)N(C=O)[C@H]3[C@@](O)(C(=O)OC)[C@H](OC(C)=O)[C@]5(CC)C=CCN6CC[C@]43[C@@H]65)C2)C1 [vincristine] | more than 100 fold | –
